Measurements: paper PMC7819943, “Rice protein-binding microarrays: a tool to detect cis-acting elements near promoter regions in rice”
This is one part of the list.

The sequences below were run against T1, OsSMF1 (Oryza sativa, UniProt Q6ZLB0 1-436) (assay: protein-binding microarray (RPBM); PBS, 2% BSA, 51.3 ng/ul salmon testes DNA, 50 uM zinc acetate, 200 nM TF, 25 C, 1 h; high values mean tight binding). Conditions: protein: recombinant; tags: N-terminal polyhistidine and DsRed monomer fusion (pET32a); chain copies: 2; label: CyDye5-dUTP incorporated in the synthesized complementary strand; 3' TTTTT single-stranded linker to array surface; dsDNA, one strand shown.
T1 sequence: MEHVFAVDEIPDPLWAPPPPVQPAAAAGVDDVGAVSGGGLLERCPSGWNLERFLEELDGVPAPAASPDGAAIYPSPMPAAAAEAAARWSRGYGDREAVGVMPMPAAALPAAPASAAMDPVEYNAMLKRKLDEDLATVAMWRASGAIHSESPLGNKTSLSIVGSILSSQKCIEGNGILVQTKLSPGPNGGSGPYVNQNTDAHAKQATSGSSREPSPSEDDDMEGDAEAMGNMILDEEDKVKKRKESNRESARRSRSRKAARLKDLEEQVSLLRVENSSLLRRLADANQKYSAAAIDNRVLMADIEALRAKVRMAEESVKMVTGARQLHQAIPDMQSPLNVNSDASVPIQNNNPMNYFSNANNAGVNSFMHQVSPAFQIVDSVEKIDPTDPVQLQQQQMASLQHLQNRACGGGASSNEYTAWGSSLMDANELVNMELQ
Method in brief: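 An Axon 4000B scanner gave the binding signal as per-feature fluorescence intensity in arbitrary units. This followed washing of a custom Agilent array that had been incubated for 1 h at 25 °C with 200 nM protein in PBS, 2% BSA, salmon testes DNA and 50 µM zinc acetate. The proteins were transcription factors fused at the N-terminus to polyhistidine and DsRed, expressed in E. coli BL21-CodonPlus and purified on Ni–NTA.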

Sequence | binding signal
CAGCTGGTGTTATCTTATCTAAGCCAATATGAGTAATCGCCGGAGTCACCTAGTGCAG | 3200 fluorescence intensity (a.u.)
TTGGGTAGTTAACTAGAGCGTTAAACAAACCTTGCTGACGCGGAGTCACCTAGTGCAG | 7600 fluorescence intensity (a.u.)
ACACACGTCGCCGCCACGTGTACGTGTCACGCTCACACCTCGGAGTCACCTAGTGCAG | 22700 fluorescence intensity (a.u.)
GACCTTTTCGACCTGGGGAGGATGACAAGTCCAGTTCAGTCGGAGTCACCTAGTGCAG | 3250 fluorescence intensity (a.u.)
TTCTGCTGCACACGCGTCCACCCGAGCCGAGAGCCCGAGACGGAGTCACCTAGTGCAG | 3640 fluorescence intensity (a.u.)
AGAAGCGAGGTGACAGCCCAGCCATGGACGGCTAGGACGCCGGAGTCACCTAGTGCAG | 3240 fluorescence intensity (a.u.)
TTAGTATGAAGTAAACACACCCTTATTGTACGTGGTAGAGCGGAGTCACCTAGTGCAG | 4320 fluorescence intensity (a.u.)
CACAAGTTCTCCTACGCTGACTCCTCTCTTGGAACTTCAGCGGAGTCACCTAGTGCAG | 5030 fluorescence intensity (a.u.)
AGTGTGGACCGCAATGGCAAGCCACGTTCACATCTCCGACCGGAGTCACCTAGTGCAG | 4600 fluorescence intensity (a.u.)
TTAGGACCATAATATCTAATGTTACATGCCACGTACCAAACGGAGTCACCTAGTGCAG | 7280 fluorescence intensity (a.u.)
CTGAAGCATTGTGTGTCATCGTTTTGATTATCATAGCTCACGGAGTCACCTAGTGCAG | 5320 fluorescence intensity (a.u.)
CCCGTCTCGTTCAGTTTCATATCAACCTCACGTCATGCCCCGGAGTCACCTAGTGCAG | 4320 fluorescence intensity (a.u.)
CAAAGCCCACAGAGTCTCACGTCACTGTAACTTCACTCACCGGAGTCACCTAGTGCAG | 4970 fluorescence intensity (a.u.)
CTAGAACATAATTACTATATGTATGACTCCGACCTGCACACGGAGTCACCTAGTGCAG | 3370 fluorescence intensity (a.u.)
CAATCCCCTAGCCTCGCCACCCGCCACGTGTCGTCCCGCGCGGAGTCACCTAGTGCAG | 13500 fluorescence intensity (a.u.)
TCTGATTTGTTGGTGATGTGTTGCTGTACTTCTTGTTCTGCGGAGTCACCTAGTGCAG | 3400 fluorescence intensity (a.u.)
ATGAAATGTTTGTCATTTCTGGTGGGGCTGTTAGTTAATTCGGAGTCACCTAGTGCAG | 4040 fluorescence intensity (a.u.)
CAGCACGCCACCGGCGATGTCGGCCACGTTCAAACTTCACCGGAGTCACCTAGTGCAG | 3590 fluorescence intensity (a.u.)
AAAGAAATGTTCCAATACCAGAGTCACCGTGACACCAATGCGGAGTCACCTAGTGCAG | 3310 fluorescence intensity (a.u.)
CTACGTACTGTTTAACTTATATATGTCATTTCATATGGTTCGGAGTCACCTAGTGCAG | 3290 fluorescence intensity (a.u.)
CCGGGTGCACCACGCTGGCGCACCTGGTCTTCTTCCTCCCCGGAGTCACCTAGTGCAG | 4210 fluorescence intensity (a.u.)
GCCCAGATATTTCACCACGTCAGCAATCCGCGCCGAAACGCGGAGTCACCTAGTGCAG | 16600 fluorescence intensity (a.u.)
AGGGCACATTATGAAATTACACCCCTACCTTTCAGCAAAACGGAGTCACCTAGTGCAG | 3300 fluorescence intensity (a.u.)

Not a retest: entries from further up.
Sequence | binding signal
CTGAAGCATTGTGTGTCATCGTTTTGATTATCATAGCTCACGGAGTCACCTAGTGCAG | 5320 fluorescence intensity (a.u.)
CCCGTCTCGTTCAGTTTCATATCAACCTCACGTCATGCCCCGGAGTCACCTAGTGCAG | 4320 fluorescence intensity (a.u.)
